Source: the supplement of paper PMC6411743
± gives the standard deviation of the averaged measurements. Only a part is listed here, and it is no random draw. Most values lie at the level of the controls, where differences are scatter.

By UniProt entry, the sequences of proteins in these tests, tags left out. Where a name states a change or a piece, a line headed by the entry shows the natural chain unless it says otherwise.
UniProt Q9BRT3: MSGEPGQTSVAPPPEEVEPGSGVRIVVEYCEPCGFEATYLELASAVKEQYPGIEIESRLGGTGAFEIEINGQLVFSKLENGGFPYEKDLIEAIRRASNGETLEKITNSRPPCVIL
UniProt Q9BTE6: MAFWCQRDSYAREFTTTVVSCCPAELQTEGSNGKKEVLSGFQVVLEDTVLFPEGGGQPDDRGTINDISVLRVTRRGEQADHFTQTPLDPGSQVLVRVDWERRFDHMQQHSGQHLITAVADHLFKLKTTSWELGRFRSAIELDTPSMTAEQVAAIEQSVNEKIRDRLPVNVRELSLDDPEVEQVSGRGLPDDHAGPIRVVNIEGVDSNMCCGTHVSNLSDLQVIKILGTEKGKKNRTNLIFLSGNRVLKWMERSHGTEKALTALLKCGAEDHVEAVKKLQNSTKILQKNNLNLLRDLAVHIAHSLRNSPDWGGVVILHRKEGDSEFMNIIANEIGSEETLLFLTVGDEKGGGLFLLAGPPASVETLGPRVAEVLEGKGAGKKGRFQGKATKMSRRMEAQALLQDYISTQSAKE
UniProt Q9BQ61: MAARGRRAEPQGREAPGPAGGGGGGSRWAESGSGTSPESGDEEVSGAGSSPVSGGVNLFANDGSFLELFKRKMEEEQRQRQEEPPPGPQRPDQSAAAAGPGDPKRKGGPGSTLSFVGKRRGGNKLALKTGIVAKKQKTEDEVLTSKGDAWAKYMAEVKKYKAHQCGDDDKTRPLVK
UniProt Q9BRT6: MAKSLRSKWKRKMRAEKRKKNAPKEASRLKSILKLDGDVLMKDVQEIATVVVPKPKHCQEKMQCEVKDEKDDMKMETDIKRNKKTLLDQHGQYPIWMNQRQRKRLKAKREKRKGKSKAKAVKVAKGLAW
UniProt Q9BYG3: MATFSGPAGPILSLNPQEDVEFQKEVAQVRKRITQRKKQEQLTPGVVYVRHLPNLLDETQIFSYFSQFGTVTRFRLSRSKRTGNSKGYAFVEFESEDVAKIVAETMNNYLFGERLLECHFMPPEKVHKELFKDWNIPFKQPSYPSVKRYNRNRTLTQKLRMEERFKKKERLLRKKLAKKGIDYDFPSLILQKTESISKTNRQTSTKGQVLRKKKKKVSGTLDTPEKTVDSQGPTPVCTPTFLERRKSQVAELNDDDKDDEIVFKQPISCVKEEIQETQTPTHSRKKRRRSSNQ
UniProt Q99733: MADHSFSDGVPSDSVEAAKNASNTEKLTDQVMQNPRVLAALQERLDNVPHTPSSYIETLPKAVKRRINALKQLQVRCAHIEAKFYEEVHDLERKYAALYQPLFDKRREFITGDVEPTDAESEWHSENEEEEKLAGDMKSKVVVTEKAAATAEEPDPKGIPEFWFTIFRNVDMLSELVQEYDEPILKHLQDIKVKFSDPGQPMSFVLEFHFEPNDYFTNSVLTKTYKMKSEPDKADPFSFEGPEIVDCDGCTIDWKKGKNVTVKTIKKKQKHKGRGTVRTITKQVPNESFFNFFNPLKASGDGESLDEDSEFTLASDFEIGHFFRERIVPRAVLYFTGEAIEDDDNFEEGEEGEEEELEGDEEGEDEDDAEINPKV
UniProt Q9BV73: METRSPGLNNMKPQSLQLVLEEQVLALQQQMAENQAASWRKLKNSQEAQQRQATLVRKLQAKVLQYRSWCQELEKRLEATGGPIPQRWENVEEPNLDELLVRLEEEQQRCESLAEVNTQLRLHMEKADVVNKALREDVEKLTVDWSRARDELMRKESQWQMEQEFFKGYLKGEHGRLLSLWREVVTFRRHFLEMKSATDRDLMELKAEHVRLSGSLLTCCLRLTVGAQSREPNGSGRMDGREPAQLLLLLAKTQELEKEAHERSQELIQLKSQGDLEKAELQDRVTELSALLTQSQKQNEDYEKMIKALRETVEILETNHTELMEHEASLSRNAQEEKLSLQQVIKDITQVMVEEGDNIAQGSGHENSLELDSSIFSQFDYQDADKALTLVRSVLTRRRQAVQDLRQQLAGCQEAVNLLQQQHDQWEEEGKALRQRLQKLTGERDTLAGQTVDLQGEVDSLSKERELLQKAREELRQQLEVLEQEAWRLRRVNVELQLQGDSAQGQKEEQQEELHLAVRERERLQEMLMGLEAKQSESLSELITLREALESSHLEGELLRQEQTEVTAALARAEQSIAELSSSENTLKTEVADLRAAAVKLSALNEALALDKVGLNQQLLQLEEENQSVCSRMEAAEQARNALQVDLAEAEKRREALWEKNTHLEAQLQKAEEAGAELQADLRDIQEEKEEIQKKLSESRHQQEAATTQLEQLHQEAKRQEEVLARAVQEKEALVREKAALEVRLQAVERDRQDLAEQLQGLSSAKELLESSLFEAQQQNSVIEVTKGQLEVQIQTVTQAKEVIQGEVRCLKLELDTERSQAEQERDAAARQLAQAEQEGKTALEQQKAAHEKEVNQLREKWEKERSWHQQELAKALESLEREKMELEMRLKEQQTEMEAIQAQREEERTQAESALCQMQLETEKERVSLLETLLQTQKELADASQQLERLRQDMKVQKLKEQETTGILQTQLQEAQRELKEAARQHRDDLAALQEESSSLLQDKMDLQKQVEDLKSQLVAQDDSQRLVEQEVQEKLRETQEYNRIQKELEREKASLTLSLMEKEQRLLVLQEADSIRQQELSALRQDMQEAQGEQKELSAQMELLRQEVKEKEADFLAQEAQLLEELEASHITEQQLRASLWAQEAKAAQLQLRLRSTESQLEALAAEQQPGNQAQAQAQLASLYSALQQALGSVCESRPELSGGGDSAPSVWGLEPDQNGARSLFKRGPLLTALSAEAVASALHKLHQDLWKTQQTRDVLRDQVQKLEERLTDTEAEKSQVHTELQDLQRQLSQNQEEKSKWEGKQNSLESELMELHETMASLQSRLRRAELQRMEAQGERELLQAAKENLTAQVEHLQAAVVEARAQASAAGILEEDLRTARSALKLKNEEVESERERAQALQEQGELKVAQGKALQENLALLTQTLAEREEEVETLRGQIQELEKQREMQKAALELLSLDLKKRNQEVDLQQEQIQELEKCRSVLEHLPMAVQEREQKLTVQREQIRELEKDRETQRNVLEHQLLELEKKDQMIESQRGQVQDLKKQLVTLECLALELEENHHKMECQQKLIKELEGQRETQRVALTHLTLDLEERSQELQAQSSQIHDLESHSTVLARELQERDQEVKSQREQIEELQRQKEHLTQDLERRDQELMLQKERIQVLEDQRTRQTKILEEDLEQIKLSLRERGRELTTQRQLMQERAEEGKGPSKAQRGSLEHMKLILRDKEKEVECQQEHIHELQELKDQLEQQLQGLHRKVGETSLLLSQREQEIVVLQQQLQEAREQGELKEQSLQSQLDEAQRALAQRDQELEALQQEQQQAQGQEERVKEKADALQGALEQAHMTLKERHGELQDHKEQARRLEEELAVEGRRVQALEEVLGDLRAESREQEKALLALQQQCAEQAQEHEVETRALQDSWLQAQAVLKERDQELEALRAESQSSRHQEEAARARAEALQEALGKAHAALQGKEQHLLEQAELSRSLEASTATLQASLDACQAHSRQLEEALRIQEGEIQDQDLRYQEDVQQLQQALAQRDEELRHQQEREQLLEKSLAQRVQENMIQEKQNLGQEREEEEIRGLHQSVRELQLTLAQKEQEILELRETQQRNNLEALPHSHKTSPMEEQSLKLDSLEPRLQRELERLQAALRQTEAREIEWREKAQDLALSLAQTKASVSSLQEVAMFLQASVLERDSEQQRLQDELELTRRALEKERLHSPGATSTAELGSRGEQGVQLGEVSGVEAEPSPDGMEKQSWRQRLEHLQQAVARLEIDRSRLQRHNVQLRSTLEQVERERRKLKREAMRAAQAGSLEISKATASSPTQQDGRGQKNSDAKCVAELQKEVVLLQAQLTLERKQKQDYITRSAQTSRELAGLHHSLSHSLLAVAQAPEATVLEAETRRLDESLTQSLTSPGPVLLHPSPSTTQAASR
UniProt Q9BQI0: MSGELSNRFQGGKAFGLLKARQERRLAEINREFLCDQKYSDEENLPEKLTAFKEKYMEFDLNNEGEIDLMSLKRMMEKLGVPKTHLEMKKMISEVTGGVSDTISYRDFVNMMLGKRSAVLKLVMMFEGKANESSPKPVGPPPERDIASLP
UniProt Q9BTE1, whole entry: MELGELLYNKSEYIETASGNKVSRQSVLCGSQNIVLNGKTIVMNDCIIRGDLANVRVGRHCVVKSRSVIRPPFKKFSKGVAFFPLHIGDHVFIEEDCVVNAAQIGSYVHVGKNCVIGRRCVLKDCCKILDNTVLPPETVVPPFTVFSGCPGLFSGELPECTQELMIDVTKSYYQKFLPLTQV
UniProt Q9BUL5: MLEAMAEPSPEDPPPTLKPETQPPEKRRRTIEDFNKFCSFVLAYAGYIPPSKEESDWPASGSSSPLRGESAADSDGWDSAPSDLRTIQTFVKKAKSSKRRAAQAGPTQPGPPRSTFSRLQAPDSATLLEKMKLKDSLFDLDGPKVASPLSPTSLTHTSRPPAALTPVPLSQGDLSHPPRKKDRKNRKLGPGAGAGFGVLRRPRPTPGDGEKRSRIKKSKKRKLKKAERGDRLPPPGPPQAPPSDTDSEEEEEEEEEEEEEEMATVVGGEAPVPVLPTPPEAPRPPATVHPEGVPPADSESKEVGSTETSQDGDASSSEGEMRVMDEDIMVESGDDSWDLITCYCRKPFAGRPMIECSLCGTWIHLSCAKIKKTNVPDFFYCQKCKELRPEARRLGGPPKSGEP
UniProt Q9BUR4: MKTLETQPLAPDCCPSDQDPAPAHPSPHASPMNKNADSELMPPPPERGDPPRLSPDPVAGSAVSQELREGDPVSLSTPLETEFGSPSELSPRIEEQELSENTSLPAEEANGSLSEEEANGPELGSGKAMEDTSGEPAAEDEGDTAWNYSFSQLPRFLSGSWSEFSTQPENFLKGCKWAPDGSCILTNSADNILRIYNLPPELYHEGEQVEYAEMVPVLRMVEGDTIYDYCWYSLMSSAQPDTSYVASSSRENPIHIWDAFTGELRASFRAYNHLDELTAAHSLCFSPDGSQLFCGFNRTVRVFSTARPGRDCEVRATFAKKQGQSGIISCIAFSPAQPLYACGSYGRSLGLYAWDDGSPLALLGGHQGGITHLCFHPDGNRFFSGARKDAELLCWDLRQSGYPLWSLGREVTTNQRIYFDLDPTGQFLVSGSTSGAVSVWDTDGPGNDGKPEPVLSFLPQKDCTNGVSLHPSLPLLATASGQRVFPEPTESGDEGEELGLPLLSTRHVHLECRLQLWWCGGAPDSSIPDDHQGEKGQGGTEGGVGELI
UniProt Q99728: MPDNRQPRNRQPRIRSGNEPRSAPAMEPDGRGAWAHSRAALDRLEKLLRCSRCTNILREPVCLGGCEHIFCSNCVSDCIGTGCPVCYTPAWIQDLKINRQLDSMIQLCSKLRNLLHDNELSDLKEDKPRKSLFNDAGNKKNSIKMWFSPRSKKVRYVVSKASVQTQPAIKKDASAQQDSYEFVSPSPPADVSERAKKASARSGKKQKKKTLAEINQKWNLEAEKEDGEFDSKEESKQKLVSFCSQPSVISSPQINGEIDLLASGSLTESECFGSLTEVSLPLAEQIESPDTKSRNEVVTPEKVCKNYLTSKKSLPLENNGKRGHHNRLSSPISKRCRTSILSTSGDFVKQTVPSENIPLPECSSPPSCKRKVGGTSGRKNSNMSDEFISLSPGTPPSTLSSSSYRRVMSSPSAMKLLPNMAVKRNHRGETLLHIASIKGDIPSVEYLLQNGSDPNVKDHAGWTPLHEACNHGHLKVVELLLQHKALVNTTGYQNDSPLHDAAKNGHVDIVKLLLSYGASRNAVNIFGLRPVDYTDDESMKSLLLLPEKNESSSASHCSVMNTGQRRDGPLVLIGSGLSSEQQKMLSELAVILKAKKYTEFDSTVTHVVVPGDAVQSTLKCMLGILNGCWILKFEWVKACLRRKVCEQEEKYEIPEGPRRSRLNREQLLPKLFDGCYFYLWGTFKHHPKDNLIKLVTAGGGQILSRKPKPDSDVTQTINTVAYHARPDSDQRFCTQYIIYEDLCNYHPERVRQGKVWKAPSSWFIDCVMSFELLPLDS
UniProt Q9BYC5: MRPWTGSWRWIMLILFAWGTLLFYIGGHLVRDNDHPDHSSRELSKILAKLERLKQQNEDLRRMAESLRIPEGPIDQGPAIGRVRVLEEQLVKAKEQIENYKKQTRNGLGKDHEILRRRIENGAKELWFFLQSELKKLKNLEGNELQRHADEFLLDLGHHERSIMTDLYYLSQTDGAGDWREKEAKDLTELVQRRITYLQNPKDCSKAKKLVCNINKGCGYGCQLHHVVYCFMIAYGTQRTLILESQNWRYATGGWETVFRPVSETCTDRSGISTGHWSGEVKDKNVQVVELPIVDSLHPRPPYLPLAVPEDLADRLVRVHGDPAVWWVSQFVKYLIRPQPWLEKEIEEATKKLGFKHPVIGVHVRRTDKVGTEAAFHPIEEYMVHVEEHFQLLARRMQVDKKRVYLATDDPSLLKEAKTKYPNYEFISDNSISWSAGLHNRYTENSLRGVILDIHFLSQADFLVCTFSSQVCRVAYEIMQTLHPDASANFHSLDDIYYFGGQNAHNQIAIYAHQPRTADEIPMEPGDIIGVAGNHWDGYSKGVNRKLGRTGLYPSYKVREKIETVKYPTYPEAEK

Compound: Nc1ncnc2c1ncn2[C@@H]1O[C@H](COP(=O)(O)OP(=O)(O)NP(=O)(O)O)[C@@H](O)[C@H]1O [adenylyl imidodiphosphate]
Assay: NP40-soluble protein abundance relative to vehicle (solubility fold change) (ratio); higher = more soluble protein in presence of AMP-PNP
How it was run: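 Across three independent experiments, values are fold changes against the detergent-processed vehicle for each replicate, based on vsn-normalised intensities. The samples were Jurkat crude lysate treated with eight concentrations (0.1 to 10 mM) for 10 min at room temperature and then 3 min at 37 °C. Lysate was solubilised with 0.8% NP40 and benzonase, ultracentrifuged, and the supernatant analysed by TMT-labelled LC-MS/MS.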

Target	NP40-soluble protein abundance (concentration: 0.1mM)	NP40-soluble protein abundance (concentration: 0.5mM)
UniProt Q96T51 and related entries	0.996 ± 0.05	0.98 ± 0.054
UniProt Q9BS26	1.02 ± 0.015	1.01 ± 0.018
TSNAX (UniProt Q99598)	0.996 ± 0.012	0.999 ± 0.018
UniProt Q9BRT3	0.931 ± 0.032	0.898 ± 0.038
UniProt Q9BUB5 and related entries	1.02 ± 0.038	1.04 ± 0.044
HEMGN (UniProt Q9BXL5)	0.983 ± 0.02	1.01 ± 0.044
UBAC1 (UniProt Q9BSL1)	0.969 ± 0.033	0.964 ± 0.018
UniProt Q9BVC4	1.07 ± 0.052	0.972 ± 0.062
UniProt Q9BQP7	0.995 ± 0.014	1.03 ± 0.023
UniProt Q9BRP8 and related entries	0.982 ± 0.034	1.04 ± 0.049
AARSD1 (UniProt Q9BTE6)	0.977 ± 0.033	0.978 ± 0.04
PLEKHF1 (UniProt Q96S99)	0.997 ± 0.035	0.968 ± 0.027
TMEM109 (UniProt Q9BVC6)	0.993 ± 0.033	1.03 ± 0.047
UniProt Q96QZ7 and related entries	1.001 ± 0.0029	0.998 ± 0.013
UniProt Q9BPZ3 and related entries	0.986 ± 0.034	0.989 ± 0.038
LIMD2 (UniProt Q9BT23)	1.09 ± 0.056	1.14 ± 0.029
CENPO (UniProt Q9BU64)	1.01 ± 0.011	1.013 ± 0.0081
SEC62 (UniProt Q99442)	1 ± 0.042	0.971 ± 0.061
PI4K2A (UniProt Q9BTU6)	1.01 ± 0.02	0.966 ± 0.049
TARS2 (UniProt Q9BW92)	1.02 ± 0.018	0.965 ± 0.064
POP1 (UniProt Q99575)	0.996 ± 0.052	0.965 ± 0.058
ACAT2 (UniProt Q9BWD1)	0.971 ± 0.021	0.993 ± 0.031
UniProt Q99873-3|Q99873-4	1.04 ± 0.086	0.994 ± 0.21
UniProt Q9BSW2-2	1.01 ± 0.029	1 ± 0.057

Target	NP40-soluble protein abundance (concentration: 0.1mM)	NP40-soluble protein abundance (concentration: 0.5mM)
UniProt Q9BQ61	0.958 ± 0.055	0.985 ± 0.06
UniProt Q9BW91 and related entries	0.968 ± 0.035	0.989 ± 0.015
LLPH (UniProt Q9BRT6)	1.05 ± 0.084	1.07 ± 0.025
UniProt Q9BSJ8 and related entries	1.01 ± 0.035	0.977 ± 0.055
PSMD1 (UniProt Q99460)	0.974 ± 0.04	0.952 ± 0.079
AGPAT1 (UniProt Q99943)	1 ± 0.059	0.976 ± 0.015
MED10 (UniProt Q9BTT4)	1 ± 0.0065	1.03 ± 0.021
UniProt Q9BUV8 and related entries	0.988 ± 0.024	1.059 ± 0.0084
MRI1 (UniProt Q9BV20)	0.992 ± 0.021	0.975 ± 0.011
UniProt Q96S66 and related entries	0.953 ± 0.031	0.99 ± 0.019
CORO1B (UniProt Q9BR76)	1.01 ± 0.014	1.01 ± 0.047
MIPEP (UniProt Q99797)	1.03 ± 0.035	0.984 ± 0.054
DSCC1 (UniProt Q9BVC3)	1.01 ± 0.016	0.986 ± 0.046
UniProt Q99828 and related entries	0.9917 ± 0.0076	0.99 ± 0.025
SPAG5 (UniProt Q96R06)	0.981 ± 0.01	0.9848 ± 0.0033
NOC4L (UniProt Q9BVI4)	1.02 ± 0.013	1.013 ± 0.01
UniProt Q9BYG3	1.02 ± 0.05	1.03 ± 0.016
UniProt Q9BTK6	0.97453 ± 3.5e-05	0.986 ± 0.013
UniProt Q96T76 and related entries	1.02 ± 0.034	1.01 ± 0.031
SF3B5 (UniProt Q9BWJ5)	0.98 ± 0.025	0.993 ± 0.067
UniProt Q9BRR9-2|Q9BRR9-4|Q9BRR9-5|R4GN15	0.979 ± 0.012	0.95 ± 0.022
TTC1 (UniProt Q99614)	1 ± 0.027	0.999 ± 0.02
PSMB7 (UniProt Q99436)	0.998 ± 0.023	0.976 ± 0.063
ALG1 (UniProt Q9BT22)	1.02 ± 0.052	0.946 ± 0.046

Target	NP40-soluble protein abundance (concentration: 0.1mM)	NP40-soluble protein abundance (concentration: 0.5mM)
LYSMD1 (UniProt Q96S90)	0.981 ± 0.016	0.99 ± 0.046
UniProt Q9BQ52 and related entries	1.01 ± 0.01	0.9986 ± 0.0086
UniProt Q99719 and related entries	1.06 ± 0.067	1.08 ± 0.073
VAT1 (UniProt Q99536)	0.971 ± 0.026	0.999 ± 0.021
UniProt Q9BX63 and related entries	1.01 ± 0.016	0.988 ± 0.019
UniProt Q9BUE6 and related entries	0.994 ± 0.012	1.01 ± 0.02
TM9SF2 (UniProt Q99805)	0.97 ± 0.08	0.97 ± 0.091
NEU1 (UniProt Q99519)	0.991 ± 0.021	1.03 ± 0.018
UniProt Q99571 and related entries	0.998 ± 0.012	0.981 ± 0.031
UniProt Q9BVV7	1.022 ± 0.0032	1.047 ± 0.0057
HIRIP3 (UniProt Q9BW71)	0.976 ± 0.043	1.03 ± 0.061
UniProt Q9BY44 and related entries	0.988 ± 0.024	1.02 ± 0.024
UniProt Q9BU02 and related entries	1.03 ± 0.028	1.02 ± 0.058
UniProt Q96TC7	0.976 ± 0.042	0.965 ± 0.036
NUP88 (UniProt Q99567)	0.985 ± 0.042	0.965 ± 0.038
UniProt Q99733 and related entries	1.01 ± 0.021	1.04 ± 0.082
GINS4 (UniProt Q9BRT9)	0.943 ± 0.065	0.921 ± 0.057
UniProt Q9BTV5 and related entries	0.9901 ± 0.0035	0.988 ± 0.021
UniProt Q9BRJ7 and related entries	1.01 ± 0.046	0.995 ± 0.041
UniProt Q9BXM9 and related entries	0.982 ± 0.053	1.03 ± 0.031
UniProt Q9BV73 and related entries	1 ± 0.031	0.982 ± 0.025
UniProt Q9BWT3 and related entries	0.986 ± 0.0099	1.01 ± 0.029
UniProt Q9BTT6	1.01 ± 0.022	0.99451 ± 0.00076
BDH2 (UniProt Q9BUT1)	0.9931 ± 0.0096	0.988 ± 0.021

Target	NP40-soluble protein abundance (concentration: 0.1mM)	NP40-soluble protein abundance (concentration: 0.5mM)
PAFAH2 (UniProt Q99487)	1.05 ± 0.055	0.993 ± 0.033
UniProt Q9BTC8 and related entries	1.01 ± 0.041	1.02 ± 0.023
KIF2C (UniProt Q99661)	0.978 ± 0.013	1.03 ± 0.033
UniProt Q96T23 and related entries	0.982 ± 0.016	1.02 ± 0.033
MND1 (UniProt Q9BWT6)	0.961 ± 0.033	0.986 ± 0.07
OSBPL11 (UniProt Q9BXB4)	0.98 ± 0.041	0.998 ± 0.027
TXN2 (UniProt Q99757)	0.951 ± 0.051	1.01 ± 0.034
UniProt Q99707 and related entries	1 ± 0.012	0.967 ± 0.037
UniProt Q9BQI0 and related entries	0.998 ± 0.036	1.02 ± 0.056
WDR77 (UniProt Q9BQA1)	1.01 ± 0.032	1 ± 0.012
UniProt Q9BY12 and related entries	1.03 ± 0.045	1.01 ± 0.043
UniProt Q96SD1 and related entries	0.963 ± 0.011	1.01 ± 0.042
DCTN5 (UniProt Q9BTE1)	1.027 ± 0.0031	0.993 ± 0.028
TCF25 (UniProt Q9BQ70)	1.07 ± 0.13	1.01 ± 0.031
NUP85 (UniProt Q9BW27)	1.07 ± 0.018	0.993 ± 0.072
MRPL9 (UniProt Q9BYD2)	1.11 ± 0.014	1.05 ± 0.042
UniProt Q9BUL5 and related entries	0.9896 ± 0.0041	1.01 ± 0.057
UniProt Q9BUR4	1.01 ± 0.012	1 ± 0.024
TBCB (UniProt Q99426)	1.01 ± 0.021	1.04 ± 0.063
UniProt Q9BTX1 and related entries	0.997 ± 0.019	1.01 ± 0.049
ARID3A (UniProt Q99856)	0.971 ± 0.025	0.983 ± 0.029
GINS3 (UniProt Q9BRX5)	0.99 ± 0.02	0.975 ± 0.0098
UniProt Q99504 and related entries	0.97 ± 0.053	1.02 ± 0.033
OSBPL1A (UniProt Q9BXW6)	0.993 ± 0.022	1.017 ± 0.0015

Target	NP40-soluble protein abundance (concentration: 0.1mM)	NP40-soluble protein abundance (concentration: 0.5mM)
SMC6 (UniProt Q96SB8)	0.997 ± 0.026	1.06 ± 0.075
UniProt Q96QU8 and related entries	1.05 ± 0.039	1.03 ± 0.032
NUF2 (UniProt Q9BZD4)	0.972 ± 0.023	1.01 ± 0.07
UniProt Q9BQT9 and related entries	0.996 ± 0.018	1.01 ± 0.04
UniProt Q99808 and related entries	1 ± 0.07	0.962 ± 0.076
UniProt Q9BVS4 and related entries	0.961 ± 0.024	0.9585 ± 0.009
UniProt Q99447 and related entries	1.01 ± 0.059	0.96 ± 0.08
SPEN (UniProt Q96T58)	1.01 ± 0.012	1.05 ± 0.043
UniProt Q9BYT3 and related entries	0.969 ± 0.027	1 ± 0.02
UniProt Q96SU4 and related entries	1.02 ± 0.029	1 ± 0.028
UniProt Q9BV86	1.04 ± 0.062	0.984 ± 0.064
UniProt Q9BVC5 and related entries	0.933 ± 0.036	0.903 ± 0.024
UniProt Q9BQG0 and related entries	1.05 ± 0.02	1.02 ± 0.029
RNF5 (UniProt Q99942)	1.04 ± 0.065	0.999 ± 0.024
RNF2 (UniProt Q99496)	1.02 ± 0.031	1.04 ± 0.038
UniProt Q9BW85	0.97 ± 0.043	1.02 ± 0.089
CDC5L (UniProt Q99459)	1.01 ± 0.033	1.03 ± 0.02
UniProt Q99728 and related entries	1.01 ± 0.046	0.993 ± 0.032
UniProt Q96T21 and related entries	0.994 ± 0.04	0.98 ± 0.026
UniProt Q96RU2-2	0.981 ± 0.032	0.989 ± 0.02
PARK7 (UniProt Q99497)	0.9591 ± 0.0047	1.01 ± 0.04
IFT140 (UniProt Q96RY7)	1.02 ± 0.035	0.968 ± 0.037
FUNDC2 (UniProt Q9BWH2)	0.937 ± 0.061	1.04 ± 0.14
FUT8 (UniProt Q9BYC5)	0.98 ± 0.028	0.99 ± 0.011
